Laboratory results from paper PMC9203792.
Results are given in words; binding and its absence hold for the method and conditions named. In cells and extracts the contact can be indirect. Some results given as binding are weak or reduced against the parent protein; the word gives no strength. For some assays here: Tags and fused reporters may be left off the sequences shown.

T1: MFN1, ectopically expressed (UniProt Q8IWA4)
T1 sequence: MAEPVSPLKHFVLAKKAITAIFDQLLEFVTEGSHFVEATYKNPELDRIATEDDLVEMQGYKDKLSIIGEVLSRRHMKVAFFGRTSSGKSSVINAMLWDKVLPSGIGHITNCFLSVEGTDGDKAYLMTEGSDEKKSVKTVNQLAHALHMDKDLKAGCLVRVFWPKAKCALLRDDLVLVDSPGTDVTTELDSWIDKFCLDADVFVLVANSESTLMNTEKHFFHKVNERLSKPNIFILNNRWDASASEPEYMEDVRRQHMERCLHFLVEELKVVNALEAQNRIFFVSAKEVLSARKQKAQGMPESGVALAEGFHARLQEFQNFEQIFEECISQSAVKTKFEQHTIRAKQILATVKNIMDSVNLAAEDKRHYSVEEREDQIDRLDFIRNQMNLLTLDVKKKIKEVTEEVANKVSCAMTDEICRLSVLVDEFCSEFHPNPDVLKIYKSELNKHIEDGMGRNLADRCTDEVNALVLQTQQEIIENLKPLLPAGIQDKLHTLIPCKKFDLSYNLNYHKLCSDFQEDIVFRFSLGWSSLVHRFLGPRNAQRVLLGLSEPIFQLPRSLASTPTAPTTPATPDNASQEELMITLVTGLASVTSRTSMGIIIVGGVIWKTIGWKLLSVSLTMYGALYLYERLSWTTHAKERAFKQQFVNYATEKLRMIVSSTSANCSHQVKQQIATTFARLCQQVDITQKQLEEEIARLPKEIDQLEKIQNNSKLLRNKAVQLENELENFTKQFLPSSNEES

T2: MFN1 1–336 (UniProt Q8IWA4)
T2 sequence: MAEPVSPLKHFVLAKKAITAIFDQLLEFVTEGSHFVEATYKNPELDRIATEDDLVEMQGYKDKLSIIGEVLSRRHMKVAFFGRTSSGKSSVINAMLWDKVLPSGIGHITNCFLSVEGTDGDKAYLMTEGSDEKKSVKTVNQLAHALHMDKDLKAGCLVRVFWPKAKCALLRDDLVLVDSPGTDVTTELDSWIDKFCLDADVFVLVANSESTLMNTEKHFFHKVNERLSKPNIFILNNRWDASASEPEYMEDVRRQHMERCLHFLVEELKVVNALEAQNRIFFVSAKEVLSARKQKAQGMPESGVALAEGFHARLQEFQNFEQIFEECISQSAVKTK

T3: MFN1 1–584 (UniProt Q8IWA4)
T3 sequence: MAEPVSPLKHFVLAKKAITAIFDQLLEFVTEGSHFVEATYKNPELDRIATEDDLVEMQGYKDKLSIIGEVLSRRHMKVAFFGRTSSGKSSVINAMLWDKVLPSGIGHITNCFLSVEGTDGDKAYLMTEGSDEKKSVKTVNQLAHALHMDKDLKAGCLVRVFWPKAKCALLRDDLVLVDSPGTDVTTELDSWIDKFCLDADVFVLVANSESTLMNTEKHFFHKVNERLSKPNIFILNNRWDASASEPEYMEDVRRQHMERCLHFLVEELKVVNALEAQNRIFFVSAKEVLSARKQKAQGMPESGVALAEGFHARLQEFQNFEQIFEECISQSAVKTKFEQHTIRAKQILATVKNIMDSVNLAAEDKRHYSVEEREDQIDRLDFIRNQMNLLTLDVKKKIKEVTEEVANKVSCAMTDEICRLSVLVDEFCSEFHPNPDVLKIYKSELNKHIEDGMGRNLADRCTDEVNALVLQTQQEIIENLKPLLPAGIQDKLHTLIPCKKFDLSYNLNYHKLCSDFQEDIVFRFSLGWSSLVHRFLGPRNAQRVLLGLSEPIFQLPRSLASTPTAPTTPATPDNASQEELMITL

T4: MFN2, ectopically expressed (UniProt O95140)
T4 sequence: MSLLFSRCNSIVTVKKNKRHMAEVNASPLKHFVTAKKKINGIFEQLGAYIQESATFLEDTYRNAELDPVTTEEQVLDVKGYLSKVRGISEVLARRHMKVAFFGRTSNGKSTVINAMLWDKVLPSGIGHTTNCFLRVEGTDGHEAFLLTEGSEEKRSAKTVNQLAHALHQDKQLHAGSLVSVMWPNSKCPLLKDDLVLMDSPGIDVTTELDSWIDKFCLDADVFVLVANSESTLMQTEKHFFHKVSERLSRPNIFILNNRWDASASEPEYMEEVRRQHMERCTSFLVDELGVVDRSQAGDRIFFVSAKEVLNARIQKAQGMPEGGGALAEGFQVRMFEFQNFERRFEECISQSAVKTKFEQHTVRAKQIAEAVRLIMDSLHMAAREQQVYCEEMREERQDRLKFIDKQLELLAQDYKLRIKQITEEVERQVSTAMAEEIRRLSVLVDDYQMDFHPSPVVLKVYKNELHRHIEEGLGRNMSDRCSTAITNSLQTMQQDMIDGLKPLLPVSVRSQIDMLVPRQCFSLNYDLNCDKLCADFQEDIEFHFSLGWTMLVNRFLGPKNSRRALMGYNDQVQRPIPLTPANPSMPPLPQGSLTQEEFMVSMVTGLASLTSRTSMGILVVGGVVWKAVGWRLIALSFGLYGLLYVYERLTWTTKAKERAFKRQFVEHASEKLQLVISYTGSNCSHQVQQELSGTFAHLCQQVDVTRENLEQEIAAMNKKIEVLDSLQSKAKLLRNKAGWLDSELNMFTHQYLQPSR

T5: mitofusin 1 (MFN1), endogenous (human (endogenous in Huh-7)) (UniProt Q8IWA4)
T5 sequence: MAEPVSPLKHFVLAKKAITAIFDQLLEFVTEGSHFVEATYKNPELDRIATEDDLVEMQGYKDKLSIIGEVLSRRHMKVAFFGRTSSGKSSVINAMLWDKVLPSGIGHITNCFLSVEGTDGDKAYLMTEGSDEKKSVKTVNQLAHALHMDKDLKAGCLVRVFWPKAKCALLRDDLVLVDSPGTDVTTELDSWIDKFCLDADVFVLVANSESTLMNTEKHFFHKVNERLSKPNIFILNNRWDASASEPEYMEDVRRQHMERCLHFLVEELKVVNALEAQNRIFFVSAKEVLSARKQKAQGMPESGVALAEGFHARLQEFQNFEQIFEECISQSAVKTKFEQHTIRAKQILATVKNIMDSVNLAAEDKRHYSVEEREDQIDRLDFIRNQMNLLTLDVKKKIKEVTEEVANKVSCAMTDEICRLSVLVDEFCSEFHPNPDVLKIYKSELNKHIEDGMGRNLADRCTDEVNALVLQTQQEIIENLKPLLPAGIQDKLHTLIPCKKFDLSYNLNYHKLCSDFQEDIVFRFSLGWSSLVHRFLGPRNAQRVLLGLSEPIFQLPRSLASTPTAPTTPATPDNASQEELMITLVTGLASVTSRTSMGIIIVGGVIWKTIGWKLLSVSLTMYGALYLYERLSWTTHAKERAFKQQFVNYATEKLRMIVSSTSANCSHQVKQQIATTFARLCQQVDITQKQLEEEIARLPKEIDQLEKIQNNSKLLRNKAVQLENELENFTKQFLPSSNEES

T6: mitofusin 2 (MFN2), endogenous (human (endogenous in Huh-7)) (UniProt O95140)
T6 sequence: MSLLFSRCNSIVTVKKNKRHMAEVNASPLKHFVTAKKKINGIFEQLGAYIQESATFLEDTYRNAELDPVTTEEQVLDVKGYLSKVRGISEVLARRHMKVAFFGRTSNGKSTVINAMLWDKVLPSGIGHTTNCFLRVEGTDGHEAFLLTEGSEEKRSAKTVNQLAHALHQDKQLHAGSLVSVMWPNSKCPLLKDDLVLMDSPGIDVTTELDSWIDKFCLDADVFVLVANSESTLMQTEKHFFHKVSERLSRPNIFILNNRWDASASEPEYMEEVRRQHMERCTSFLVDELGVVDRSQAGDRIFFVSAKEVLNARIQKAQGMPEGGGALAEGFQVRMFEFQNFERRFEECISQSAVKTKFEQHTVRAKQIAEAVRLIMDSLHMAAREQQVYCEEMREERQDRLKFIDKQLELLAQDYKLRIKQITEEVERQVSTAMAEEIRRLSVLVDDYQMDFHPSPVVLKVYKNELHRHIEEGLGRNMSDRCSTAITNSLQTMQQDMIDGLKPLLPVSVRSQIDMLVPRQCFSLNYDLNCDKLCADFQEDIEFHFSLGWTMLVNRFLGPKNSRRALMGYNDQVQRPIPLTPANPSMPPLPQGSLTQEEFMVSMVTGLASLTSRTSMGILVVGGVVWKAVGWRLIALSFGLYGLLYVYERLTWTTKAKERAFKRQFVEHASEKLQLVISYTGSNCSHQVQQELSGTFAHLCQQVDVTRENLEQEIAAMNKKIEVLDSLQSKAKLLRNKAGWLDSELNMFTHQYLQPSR


How the values were obtained:
[1] = molecular target: T1, MFN1, ectopically expressed; assay: co-IP; HEK293T cells transfected with tagged constructs; mild lysis buffer (100 mM NaCl, 1% NP40, 10 mM Tris pH 7.5, 10 mM EDTA), antibody 2 h at 4 °C, protein G-Sepharose; western blotting
MFN1 1–336 = molecular target: T2, MFN1 1–336; assay: as above
MFN1 1–584 = molecular target: T3, MFN1 1–584; assay: as above
[2] = molecular target: T4, MFN2, ectopically expressed; assay: as above
[3] = molecular target: T5, mitofusin 1 (MFN1), endogenous (human (endogenous in Huh-7)); assay: co-IP; endogenous proteins in Huh-7 lysate; mild lysis buffer (100 mM NaCl, 1% NP40, 10 mM Tris pH 7.5, 10 mM EDTA), protein G-Sepharose; western blotting
[4] = molecular target: T6, mitofusin 2 (MFN2), endogenous (human (endogenous in Huh-7)); assay: as above

binding [1] | binding (MFN1 1–336) | binding (MFN1 1–584) | binding [2] | binding [3] | binding [4] | Binder
binds | binds |  |  |  |  | FUNDC2 1–127 (domain or fragment, UniProt Q9BWH2 1-127) METSAPRAGSQVVATTARHSAAYRADPLRVSSRDKLTEMAASSQGNFEGNFESLDLAEFAKKQPWWRKLFGQESGPSAEKYSVATQLFIGGVTGWCTGFIFQKVGKLAATAVGGGFFLLQLANHTGY
binds | binds | binds | binds |  |  | FUNDC2, ectopically expressed (protein, UniProt Q9BWH2 1-189) METSAPRAGSQVVATTARHSAAYRADPLRVSSRDKLTEMAASSQGNFEGNFESLDLAEFAKKQPWWRKLFGQESGPSAEKYSVATQLFIGGVTGWCTGFIFQKVGKLAATAVGGGFFLLQLANHTGYIKVDWQRVEKDMKKAKEQLKIRKSNQIPTEVRSKAEEVVSFVKKNVLVTGGFFGGFLLGMAS
 |  |  |  | binds | binds | FUN14 domain containing 2 (FUNDC2), endogenous (protein, UniProt Q9BWH2 1-189) METSAPRAGSQVVATTARHSAAYRADPLRVSSRDKLTEMAASSQGNFEGNFESLDLAEFAKKQPWWRKLFGQESGPSAEKYSVATQLFIGGVTGWCTGFIFQKVGKLAATAVGGGFFLLQLANHTGYIKVDWQRVEKDMKKAKEQLKIRKSNQIPTEVRSKAEEVVSFVKKNVLVTGGFFGGFLLGMAS
